Measurements: the supplement of paper PMC12823440, “Inhibitors supercharge kinase turnover through native proteolytic circuits” (Nature, 2025)
Counter-ions that a name gives are not always drawn. This is one part of the list. The calls rarely recur for the same compound in another form.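 Kinases, fused to nanoluciferase, were expressed in K562 cells; luminescence was measured every 4 h from 2 to 18 h as percent of control (DMSO = 100%, positive control = 0%). A time point is decreased if signal falls significantly (2 sigma). Hits were called by the authors by a rule that is not shown; the count of time points alone does not decide it.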

Chains of the proteins cited; added tags and fusions are not shown.
UniProt P21860, whole entry: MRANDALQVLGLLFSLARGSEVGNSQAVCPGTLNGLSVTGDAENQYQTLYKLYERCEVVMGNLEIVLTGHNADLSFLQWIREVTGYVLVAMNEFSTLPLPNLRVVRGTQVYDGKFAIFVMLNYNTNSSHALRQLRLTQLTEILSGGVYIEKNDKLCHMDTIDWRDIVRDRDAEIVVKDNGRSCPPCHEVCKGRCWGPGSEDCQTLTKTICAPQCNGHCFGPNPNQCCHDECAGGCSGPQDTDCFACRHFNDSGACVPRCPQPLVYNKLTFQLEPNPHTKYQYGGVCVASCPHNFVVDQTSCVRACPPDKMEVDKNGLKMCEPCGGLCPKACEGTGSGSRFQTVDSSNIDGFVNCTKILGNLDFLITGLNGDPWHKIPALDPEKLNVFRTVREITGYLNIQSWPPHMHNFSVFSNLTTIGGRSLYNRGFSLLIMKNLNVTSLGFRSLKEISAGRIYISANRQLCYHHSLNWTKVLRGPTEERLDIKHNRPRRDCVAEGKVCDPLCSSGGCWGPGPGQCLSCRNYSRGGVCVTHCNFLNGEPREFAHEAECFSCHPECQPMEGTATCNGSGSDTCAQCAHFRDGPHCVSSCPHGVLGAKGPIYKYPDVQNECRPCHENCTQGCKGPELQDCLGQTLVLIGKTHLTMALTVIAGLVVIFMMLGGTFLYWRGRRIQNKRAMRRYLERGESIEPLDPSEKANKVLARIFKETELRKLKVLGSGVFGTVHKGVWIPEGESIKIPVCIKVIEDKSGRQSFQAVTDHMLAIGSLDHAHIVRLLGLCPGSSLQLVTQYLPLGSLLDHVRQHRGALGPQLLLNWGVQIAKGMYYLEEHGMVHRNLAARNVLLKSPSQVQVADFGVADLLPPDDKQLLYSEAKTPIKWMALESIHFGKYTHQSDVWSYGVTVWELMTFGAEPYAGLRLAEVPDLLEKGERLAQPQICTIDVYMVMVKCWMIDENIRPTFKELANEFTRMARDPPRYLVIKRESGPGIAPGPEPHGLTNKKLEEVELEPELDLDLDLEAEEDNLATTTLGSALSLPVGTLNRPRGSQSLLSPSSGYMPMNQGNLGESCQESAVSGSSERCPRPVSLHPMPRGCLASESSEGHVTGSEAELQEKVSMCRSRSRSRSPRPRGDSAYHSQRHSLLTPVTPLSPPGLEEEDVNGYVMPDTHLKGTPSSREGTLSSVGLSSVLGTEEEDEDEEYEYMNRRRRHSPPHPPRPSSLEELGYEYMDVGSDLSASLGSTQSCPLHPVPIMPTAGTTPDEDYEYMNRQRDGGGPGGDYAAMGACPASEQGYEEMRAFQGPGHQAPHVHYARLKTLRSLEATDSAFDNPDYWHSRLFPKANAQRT

Target: ERBB3 (UniProt P21860)
Experiment: kinase-Nluc reporter destabilization hit call (1 = scored as downregulated) (binary); higher = compound decreases kinase abundance
Conditions: K562; 2-18 h

kinase-Nluc reporter destabilization hit call, inactive:
CC#CC(=O)N[C@H]1CCCN(c2c(F)cc(C(N)=O)c3[nH]c(C)c(C)c23)C1 [Branebrutinib] (10 µM) 0
O=C1NC(=NCc2cccs2)S/C1=C\c1ccc2ncccc2c1 (10 µM) 0
Cn1c(=O)n(-c2ccc(C(C)(C)C#N)cc2)c2c3cc(-c4cnc5ccccc5c4)ccc3ncc21 [Dactolisib (Tosylate)] (10 µM) 0
COC(=O)c1ccc2c(C(=Nc3ccc(N(C)C(=O)CN4CCN(C)CC4)cc3)c3ccccc3)c(O)[nH]c2c1 [Nintedanib] (2.5 µM) 0
COc1cc2ncnc(Nc3ccc(O)cc3)c2cc1OC (10 µM) 0
O=C(c1ccc(-c2ccc(Cl)cc2)o1)N(Cc1ccccn1)c1ccc(N2CCNCC2)cc1 [MK2-IN-1 (hydrochloride)] (10 µM) 0
CN1CCN(S(=O)(=O)c2ccc(-c3cnc(N)c(C(=O)Nc4cccnc4)n3)cc2)CC1 (10 µM) 0
CN(C)C[C@@H]1CCn2cc(c3ccccc32)C2=C(C(=O)NC2=O)c2cn(c3ccccc23)CCO1 [Ruboxistaurin (hydrochloride)] (10 µM) 0
COc1ccc(Oc2cc(NCCC(F)(F)F)c3ncc(-c4ccc(C(=O)NC5CC5)c(C)c4)n3n2)c(F)c1F (2.5 µM) 0
CCCCNc1ncc(-c2ccc(CN3CCOCC3)cn2)c(NC2CCC(O)CC2)n1 (stereo not given) (10 µM) 0
O=C(Nc1cc(C(F)(F)F)ccc1N1CCN(Cc2ccccn2)CC1)c1ccc(-c2ccncc2)o1 (10 µM) 0
CC(C)(/C=C(\C#N)C(=O)N1CCC[C@@H](n2nc(-c3ccc(Oc4ccccc4)cc3F)c3c(N)ncnc32)C1)N1CCN(C2COC2)CC1 (2.5 µM) 0
CNC(=O)c1cccc2cc(Oc3ccnc4cc(OCC5(N)CC5)c(OC)cc34)ccc12 [Lucitanib] (10 µM) 0
COc1cc(F)cc([C@@H](CO)NC(=O)[C@@H](C)N2Cc3ccc(-c4nc(NC5CCOCC5)ncc4Cl)cc3C2=O)c1 [ERK1/2 inhibitor 2] (10 µM) 0
O=c1cc(-c2ccccc2)oc2c(O)c(O)ccc12 [7,8-Dihydroxyflavone] (10 µM) 0
C=CC(=O)N1CC[C@H](n2nc(C#Cc3cc(OC)cc(OC)c3)c3c(N)ncnc32)C1 [Futibatinib] (10 µM) 0
O=C1Nc2ccccc2/C1=C/c1ccc(F)cc1 (10 µM) 0
CN(C)Cc1ccc(-c2cnn3c(-c4cccc(NC(=O)c5cccc(C(F)(F)F)c5)c4)ccnc23)cc1 (2.5 µM) 0
Cc1c[nH]c(/C=C2\C(=O)Nc3ccccc32)c1CCC(=O)O (10 µM) 0
CC(C)c1ccc2oc3nc(N)c(C(=O)O)cc3c(=O)c2c1 [Amlexanox] (10 µM) 0
NS(=O)(=O)c1ccc(Nc2nc(OCC3CCCCC3)c3[nH]cnc3n2)cc1 (10 µM) 0
Cn1nc(C(C)(C)C)cc1NC(=O)Nc1ccc(Oc2ccncc2)cc1 (10 µM) 0
COc1ccc(F)c(F)c1C(=O)c1cnc(NC2CCN(S(C)(=O)=O)CC2)nc1N (2.5 µM) 0
COc1cc(C(=O)NC2CCN(C)CC2)ccc1Nc1ncc2c(n1)N(C1CCCC1)CC(F)(F)C(=O)N2C (10 µM) 0
CCN1C(=O)N(c2c(F)c(OC)cc(OC)c2F)Cc2cnc3[nH]c(CN4CCOCC4)cc3c21 [Pemigatinib] (10 µM) 0
COc1cc(Oc2ccnc3cc(OC)c(OC)cc23)ccc1NC(=O)NC(C)c1nccs1 (stereo not given) (2.5 µM) 0
C=CC(=O)N1C[C@H](Nc2ncnc3[nH]ccc23)CC[C@@H]1C [Ritlecitinib] (10 µM) 0
CC(C)(C)S(=O)(=O)c1cc2c(Nc3ccc4scnc4c3)ncnc2cc1OCCO (2.5 µM) 0
O=C(NOC[C@H](O)CO)c1ccc(F)c(F)c1Nc1ccc(I)cc1F (2.5 µM) 0
Cc1cccc([C@@H](CO)NC(=O)[C@@H](C)N2Cc3ccc(-c4nc(NC5CCOCC5)ncc4Cl)cc3C2=O)c1 [ERK1/2 inhibitor 1] (10 µM) 0

2 records drawn at random from those above:
kinase-Nluc reporter destabilization hit call, inactive:
NS(=O)(=O)c1ccc(Nc2nc(OCC3CCCCC3)c3[nH]cnc3n2)cc1 (10 µM) 0
O=C1NC(=NCc2cccs2)S/C1=C\c1ccc2ncccc2c1 (10 µM) 0
